Laboratory results as given in article doi:10.1101/2020.04.03.023861.
Read-outs that look alike come from different tables or passages of the source. Results are given in words; binding and its absence hold for the method and conditions named. For some assays here: In cells and extracts the contact can be indirect. Some results given as binding are weak or reduced against the parent protein; the word gives no strength. For some assays here: Where a sequence is shown, tags or fusion partners need not be part of it.

Amino acid sequences for entries named in this document (tags omitted). A change or cut given only in a name is not applied to a line headed by its entry.
UniProt P25705: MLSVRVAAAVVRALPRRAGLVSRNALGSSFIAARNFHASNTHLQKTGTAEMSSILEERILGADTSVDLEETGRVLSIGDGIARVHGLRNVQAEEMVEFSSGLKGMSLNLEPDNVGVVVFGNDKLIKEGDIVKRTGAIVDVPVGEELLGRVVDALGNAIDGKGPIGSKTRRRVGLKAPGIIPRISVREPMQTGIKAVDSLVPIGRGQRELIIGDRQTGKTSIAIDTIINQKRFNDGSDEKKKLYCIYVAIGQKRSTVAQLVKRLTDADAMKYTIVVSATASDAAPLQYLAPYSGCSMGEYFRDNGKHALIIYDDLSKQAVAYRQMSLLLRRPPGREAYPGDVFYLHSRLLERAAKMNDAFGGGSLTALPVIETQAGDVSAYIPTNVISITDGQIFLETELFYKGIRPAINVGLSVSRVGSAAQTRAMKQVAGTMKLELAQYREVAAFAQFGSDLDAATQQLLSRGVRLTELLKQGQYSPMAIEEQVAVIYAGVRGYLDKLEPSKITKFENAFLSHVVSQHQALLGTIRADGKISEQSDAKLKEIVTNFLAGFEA

T1: TMEM70 (endogenous) (human (endogenous in HEK293T and 143B)) (UniProt Q9BUB7)
T1 sequence: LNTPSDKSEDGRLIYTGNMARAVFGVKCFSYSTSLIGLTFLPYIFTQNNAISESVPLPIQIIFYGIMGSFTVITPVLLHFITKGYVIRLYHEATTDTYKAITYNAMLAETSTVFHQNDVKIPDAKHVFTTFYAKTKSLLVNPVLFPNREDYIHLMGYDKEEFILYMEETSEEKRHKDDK

T2: TMEM70 (untagged, exogenous) (human) (UniProt Q9BUB7)
T2 sequence: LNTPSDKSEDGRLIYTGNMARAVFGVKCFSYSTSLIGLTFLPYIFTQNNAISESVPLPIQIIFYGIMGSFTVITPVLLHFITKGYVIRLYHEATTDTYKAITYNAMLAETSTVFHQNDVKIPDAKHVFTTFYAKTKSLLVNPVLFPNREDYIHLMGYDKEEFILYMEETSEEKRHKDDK

T3: TMEM70-FLAG (human) (UniProt Q9BUB7)
T3 sequence: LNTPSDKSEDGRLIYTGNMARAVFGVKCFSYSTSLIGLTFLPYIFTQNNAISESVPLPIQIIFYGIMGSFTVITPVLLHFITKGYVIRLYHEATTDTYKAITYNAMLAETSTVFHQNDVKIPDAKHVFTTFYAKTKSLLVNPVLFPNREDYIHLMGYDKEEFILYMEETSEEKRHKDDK


Assays:
[1] = molecular target: fully assembled ATP synthase (human (endogenous in HEK293T and 143B)) (UniProt P25705); assay: native gel or EMSA
[2] = molecular target: T1, TMEM70 (endogenous) (human (endogenous in HEK293T and 143B)); assay: native gel or EMSA
[3] = molecular target: fully assembled ATP synthase (human (endogenous in HEK293T and 143B)) (UniProt P25705); assay: native gel or EMSA; remark: listed apart in the source
[4] = molecular target: T1, TMEM70 (endogenous) (human (endogenous in HEK293T and 143B)); assay: native gel or EMSA; remark: listed apart in the source
[5] = molecular target: T1, TMEM70 (endogenous) (human (endogenous in HEK293T and 143B)); assay: native gel or EMSA; remark: listed apart in the source
[6] = molecular target: T2, TMEM70 (untagged, exogenous) (human); assay: native gel or EMSA
[7] = molecular target: T2, TMEM70 (untagged, exogenous) (human); assay: detergent-resistant band of doubled size on SDS-PAGE and western blot
TMEM70-FLAG (human) [8] = molecular target: T3, TMEM70-FLAG (human); assay: native gel or EMSA
TMEM70-FLAG (human) [9] = molecular target: T3, TMEM70-FLAG (human); assay: co-IP + native gel or EMSA

Row | binding [1] | binding [2] | binding [3] | binding [4] | binding [5] | binding [6] | binding [7] | binding (TMEM70-FLAG (human) [8]) | binding (TMEM70-FLAG (human) [9]) | Binder
1 | no binding | binds | no binding | binds | binds |  |  |  |  | TMEM70 (endogenous) (protein, UniProt Q9BUB7 82-260) LNTPSDKSEDGRLIYTGNMARAVFGVKCFSYSTSLIGLTFLPYIFTQNNAISESVPLPIQIIFYGIMGSFTVITPVLLHFITKGYVIRLYHEATTDTYKAITYNAMLAETSTVFHQNDVKIPDAKHVFTTFYAKTKSLLVNPVLFPNREDYIHLMGYDKEEFILYMEETSEEKRHKDDK
2 | no binding |  |  |  |  | binds | binds |  |  | TMEM70 (untagged, exogenous) (protein, UniProt Q9BUB7 82-260) LNTPSDKSEDGRLIYTGNMARAVFGVKCFSYSTSLIGLTFLPYIFTQNNAISESVPLPIQIIFYGIMGSFTVITPVLLHFITKGYVIRLYHEATTDTYKAITYNAMLAETSTVFHQNDVKIPDAKHVFTTFYAKTKSLLVNPVLFPNREDYIHLMGYDKEEFILYMEETSEEKRHKDDK
3 | no binding |  |  |  |  |  |  | binds | binds | TMEM70-FLAG (protein, UniProt Q9BUB7 82-260) LNTPSDKSEDGRLIYTGNMARAVFGVKCFSYSTSLIGLTFLPYIFTQNNAISESVPLPIQIIFYGIMGSFTVITPVLLHFITKGYVIRLYHEATTDTYKAITYNAMLAETSTVFHQNDVKIPDAKHVFTTFYAKTKSLLVNPVLFPNREDYIHLMGYDKEEFILYMEETSEEKRHKDDK
